Here are results for 1 molecule from article PMC4578769, “Development of a Fluorescence-based Trypanosoma cruzi CYP51 Inhibition Assay for Effective Compound Triaging in Drug Discovery Programmes for Chagas Disease” (PLoS Neglected Tropical Diseases, 2015).

Protein sequences, listed by entry. Tags and fused reporters are not part of them. Lines headed by an entry give the natural chain unless they say otherwise; changes in a name come on top.
UniProt Q7Z1V1: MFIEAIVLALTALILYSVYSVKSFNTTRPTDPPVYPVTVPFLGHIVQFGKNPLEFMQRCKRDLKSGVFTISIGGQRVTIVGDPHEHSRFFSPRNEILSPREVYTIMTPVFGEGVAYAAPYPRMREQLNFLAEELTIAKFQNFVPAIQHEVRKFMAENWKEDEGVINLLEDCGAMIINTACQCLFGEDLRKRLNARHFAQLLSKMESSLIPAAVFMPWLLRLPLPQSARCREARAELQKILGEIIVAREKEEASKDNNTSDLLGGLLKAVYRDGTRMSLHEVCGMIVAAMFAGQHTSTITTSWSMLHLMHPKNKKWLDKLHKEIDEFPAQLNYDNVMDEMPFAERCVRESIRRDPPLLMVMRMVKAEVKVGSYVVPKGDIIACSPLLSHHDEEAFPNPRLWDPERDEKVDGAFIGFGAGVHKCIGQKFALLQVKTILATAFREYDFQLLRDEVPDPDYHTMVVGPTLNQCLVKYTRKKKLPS

This assay concerns the target T1, T. cruzi CYP51 (Tulahuen strain) (Trypanosoma cruzi, UniProt Q7Z1V1).
T1 construct: ompA leader (N); host or cells: E. coli JM109 (membrane fraction, bactosomes)
Nature of the assay: biochemical. It counts as biochemical. The protocol:
E. coli membrane fractions containing the T. cruzi CYP51 (Tulahuen strain) (Bactosomes) were provided by Cypex Ltd.
For each concentration of test compound the rate of fluorescence units per minute was calculated as a percentage of the average rate of the solvent only control wells.
The percentage of solvent control values was then plotted against the concentration range. Using the following 4 parameter fit equation, an IC50 value can be determined.
y=Range/1+(x/IC50)^s+Background
With kinetic parameters established, a microtitre-based assay to measure inhibition of recombinantly expressed T. cruzi CYP51 by test compounds was then implemented. […] Incubations containing 37 pmoles/mL of T. cruzi CYP51 in bactosomes, 100 μM BOMCC, 10, 3.3, 1.0, 0.33, 0.1, 0.033 or 0.01 μM test compound (2% v/v solvent) in 50 mM potassium phosphate buffer (pH 7.4), were pre-incubated at 37°C for 5 minutes. Upon addition of NADPH regenerating system (7.8 mg [[…]] glucose-6-phosphate, 1.7 mg [[…]] NADP, 6 units/mL glucose-6-phosphate dehydrogenase in 2% w/v sodium bicarbonate buffer) production of fluorescent metabolite CHC was measured (Exc 410 nm, Em 460 nm) at 1 minute intervals over a 10 minute period. Rates of metabolite production per minute were compared to uninhibited controls and plotted against test compound concentration to obtain an IC50.

As a reminder, the IC50 is the concentration that inhibits the measured activity by half. As to `Cc1cc(NS(=O)(=O)c2ccc(N)cc2)no1` [Sulphamethoxazole], the IC50 was greater than 8 µM. Moreover, the “inhibition of T. cruzi CYP51 (in words)” value (known CYP450 inhibitors) was “did not appear to inhibit”.
